Assay results as given in PMC3178579.
No constants are given. Whether binding was seen depends on the method and setting. Binding seen in cells or lysates may run through a third protein. Some binding calls cover weakened binding; strength is not graded here.

Sequences of proteins named here, by UniProt entry; tags and fusion partners are left off.
UniProt O88498: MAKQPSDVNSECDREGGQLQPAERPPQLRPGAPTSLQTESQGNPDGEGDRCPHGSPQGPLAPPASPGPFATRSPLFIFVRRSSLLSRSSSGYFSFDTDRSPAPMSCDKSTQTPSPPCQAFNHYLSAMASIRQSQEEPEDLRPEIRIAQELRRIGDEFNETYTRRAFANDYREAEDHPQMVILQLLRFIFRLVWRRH
UniProt Q9Z1P3: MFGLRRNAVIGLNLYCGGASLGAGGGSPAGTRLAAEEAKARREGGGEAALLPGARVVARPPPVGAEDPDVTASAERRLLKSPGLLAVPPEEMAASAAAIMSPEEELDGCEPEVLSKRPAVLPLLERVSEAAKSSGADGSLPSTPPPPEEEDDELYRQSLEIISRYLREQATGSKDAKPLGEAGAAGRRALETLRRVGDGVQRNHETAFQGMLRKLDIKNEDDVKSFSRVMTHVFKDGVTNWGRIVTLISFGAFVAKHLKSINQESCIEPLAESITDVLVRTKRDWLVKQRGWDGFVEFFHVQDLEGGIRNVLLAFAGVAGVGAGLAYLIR

Target: BCL2-like 11 (Bim) (rat (endogenous in INS-1E)) (UniProt O88498)
Assay: co-IP; INS-1E cell lysate in immunoprecipitation buffer; rabbit anti-BIM antibody overnight at 4°C, protein A-agarose; blot with anti-Mcl-1 and anti-BIM; cells untreated or transfected with dsRNA (PIC) for 24h (association clearly decreased after PIC)

- binding: binds
Substance: myeloid cell leukemia sequence 1 (Mcl-1) (from UniProt Q9Z1P3 1-330)
